Some entries share one result that the patent states for a list of compounds. For at least one compound, name, drawing or mass did not settle the structure.
Tested on: NF-κB p50/p65 heterodimer
Assay: p65-ELISA assay of NF-κB nuclear translocation in Jurkat cells
Type: cell-based, Human
Conditions: concentrations 100 ηM-5.0 μM, 30 minutes prior to PMA activation
Procedure: Inhibition of the nuclear translocation of the p50/p65 heterodimer of NF-κB was confirmed by a p65-ELISA assay. Cells were treated with the PDTC (positive control-reported to inhibit IκB phosphorylation thus inhibiting NF-κB translocation), and imidazoline 32, 30 minutes prior to PMA activation, followed by the isolation of the nuclear extract after a 30 minute incubation period.
The quantity of p65/p50 heterodimer that has translocated into the nucleus was measured using a NF-κB p65 sandwich ELISA assay (Imgenex Corp.). Jurkat cells were grown to 2×10^6 cells/mL and treated with 50 ng/mL PMA and 1 μg/mL PMA/PHA and incubated at 37° C., 5% CO2. The cells are harvested after 30 minutes and nuclear extracts are prepared as previously described by Dignam and coworkers (Dignam, et al., Nucl. Acids Res 11: 1475-1489 (1983)). The NF-κB p65 sandwich ELISA kit was then used to monitor and quantify p65 translocation into the nucleus according to the manufacturers protocol.

## C[C@]1(C(=O)O)N=C(c2ccccc2)N(Cc2ccccc2)[C@H]1c1ccccc1 (racemic) [Compound 33, dl-(4S,5S)-1-Benzyl-4-methyl-2,5-diphenyl-4,5-dihydro-1H-imidazole-4-carboxylic acid]
  inhibition of NF-κB p50/p65 heterodimer nuclear translocation: inhibition of nuclear translocation of NF-κB
